# Columns and labels:
# [1] = test system: head and neck tissue (non-tumoral mucosa and HNSCC); assay: Fluorescence imaging (CLSM, pCLE) of ex vivo human head and neck surgical specimens after topical dye staining; details: for cellular distribution of dye fluorescence: CLSM and pCLE; for cellular distribution of dye fluorescence / time for tissue labeling: topical staining; for imaging depth below the surface limited by dye diffusion: topical delivery mode
# [2] = test system: popliteal and/or inguinal lymph node; details: ex vivo CLSM and pCLE, healthy lymph nodes
compound,measurement,setting,value
"CC1(C)C(/C=C/C=C/C=C/C=C2\N(CCCCS(=O)(=O)O)c3ccc4ccccc4c3C2(C)C)=[N+](CCCCS(=O)(=O)[O-])c2ccc3ccccc3c21 [ICG, Indocyanine green]",dye leakage over the imaging procedure,[1]; 0.25 mg/ml ICG topical 10 s,no dye leakage was observed
same,cellular distribution of dye fluorescence,[1],distributed throughout the cell cytoplasm
"CN(C)c1ccc2nc3ccc(=[N+](C)C)cc-3sc2c1 [MB, Methylene blue]",cellular distribution of dye fluorescence,[1],diffuse staining in the cell cytoplasm and a higher fluorescence intensity in the nuclei
same,period of decrease in fluorescence intensity / contrast imaging due to dye leakage from the tissue,[1]; ex vivo specimens imaged immediately after staining,2 h
same,imaging depth below the surface limited by dye diffusion,[1],approximately 60 μm
same,staining of lymphocytes,[2],uniformly stained
"CCN(CC)c1ccc(C(=C2C=CC(=[N+](CC)CC)C=C2)c2cc(O)c(S(=O)(=O)[O-])cc2S(=O)(=O)[O-])cc1.[Na+] [PB, sodium patent blue V]",cellular distribution of dye fluorescence,[1],distribution throughout the cell cytoplasm
same,time for tissue labeling,[1],less than one minute
same,staining of lymphocytes,[2],uniformly stained
"Cc1cc2nc3ccc(N(C)C)cc3[s+]c2cc1N.[Cl-] [TB, Toluidine Blue]",cellular distribution of dye fluorescence,[1],Bright fluorescence in the nuclei and diffuse staining within the cytoplasm
same,time after dye loading to optimal diffusion 60 μm below the surface,"[1]; TB 1% topical, focal plane of gastroflex UHD",15 min
same,imaging depth below the surface limited by dye diffusion,[1],approximately 60 μm
same,time for tissue labeling,[1],less than one minute
same,staining of lymphocytes,[2],uniformly stained

# Reference: US20190358348A1, “CHARACTERIZATION OF BIOLOGICAL TISSUES AT A CELLULAR LEVEL USING RED AND FAR-RED FLUORESCENT DYES” (IGR-Institut Gustave Roussy, priority 2012, published 2019)
